In PubChem BioAssay AID1487 (National Center for Advancing Translational Sciences (NCATS), 2009):
The other results are listed elsewhere or left out. These are further read-outs of the screen, such as a control signal, another cell line or another target. No call is given for them. The list favours compounds with an active or inconclusive main result. The note in brackets gives the kind of curve behind each potency; many fits are weak.

Assay: qHTS Assay for Modulators of Lamin A Splicing
Conditions: HeLa LMNA splicing GFP/RFP minigene ratio, 48 h
Procedure, shortened: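 S3 HeLa cells stably expressing lamin A-EGFP splicing minigene plus DsRed2, 600 cells/well, 48 h compound exposure at 37C. Laser-scanning cytometry; analysed as GFP (500-530 nm)/RFP (575-640 nm) total intensity ratio; 0.5% DMSO vehicle.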

[1] = measured here: RFP viability control channel
[2] = measured here: GFP splicing reporter channel

For `Cc1nc2ccccc2cc1C(=O)N/N=C/c1ccco1`, which AC50 [1] is on record?
The AC50 was 6.31 µM [rising, single point].

What does the source list for `O=C(c1cc2nc(-c3ccc(F)cc3)cc(C(F)(F)F)n2n1)N1CCCCC1c1cccnc1` (stereo unspecified)?
AC50 [2]: 3.16 µM [falling, single point]; AC50 [1]: 4.47 µM [falling, partial curve, poor fit]

For `O=C(CCc1ccccc1)N1CCc2c([nH]c3ccccc23)C1c1ccc(F)cc1` (stereo unspecified), which AC50 [1] is on record?
The AC50 was 25.1 µM [rising, partial curve].

For `CCOC(=O)NC(NC(=S)Nc1ccc(OCC)cc1)C(Cl)(Cl)Cl` (stereo unspecified), which AC50 [1] is on record?
Its AC50 is 3.98 µM [rising, single point].

For `CN1C(=O)c2ccccc2Sc2ccc(NC(=O)c3ccc(C#N)cc3)cc21`, which AC50 [2] is on record?
Its AC50 is 35.5 µM [falling, single point].

For `CCn1c(CSCc2ccc(C)cc2)nnc1SCC(=O)N1CCN(c2ccccc2)CC1`, which AC50 [1] is on record?
The AC50 was 15.8 µM [rising, single point].

Which AC50 [1] does the source give for `COc1ccc(C(CNC(=O)COc2ccccc2-c2ccccc2)N2CCOCC2)cc1` (stereo unspecified) here?
Its AC50 is 12.6 µM [rising, partial curve].

Which AC50 [1] does the source give for `Nc1ccccc1Sc1ccc(C(=O)c2ccccc2C(=O)O)cc1[N+](=O)[O-]` here?
The AC50 was 0.2 µM [falling, partial curve].

For `Cc1cc(C)n(-c2ccc(C(=O)N3CCc4ccccc43)cc2)n1`, which AC50 [2] is on record?
Its AC50 is 35.5 µM [rising, single point].

What about the AC50 [1] of the same compound?
The AC50 was 35.5 µM [rising, single point].

For `Cc1cc(C)c(/C=C2\C(=O)Nc3ccccc32)[nH]1`, which AC50 [2] is on record?
The AC50 was 31.6 µM [rising, single point].

And the AC50 [1]?
Its AC50 is 20 µM [rising, single point].

For `CN/C(=C\[N+](=O)[O-])NCCSCc1csc(CN(C)C)n1`, which AC50 [2] is on record?
The AC50 was 14.1 µM [falling, single point].

With `O=C(CCCCCNc1nc(=S)[nH]c2ccccc12)NCc1ccccc1Cl` as the compound, how does the AC50 [2] read?
The AC50 was 1.26 µM [rising, partial curve, poor fit].

What about the AC50 [1] of the same compound?
Its AC50 is 0.794 µM [rising, full curve, poor fit].

For `CC(C)(C)NC(=O)C1CCN(C(=O)c2ccc(-c3ccccc3)cc2)CC1`, which AC50 [2] is on record?
The AC50 was 20 µM [falling, partial curve].

What about the AC50 [1] of the same compound?
Its AC50 is 25.1 µM [falling, partial curve].

For `Cc1cccc(C(=O)Nc2ccc(S(=O)(=O)N3CCCCC3c3cccnc3)cc2)c1` (stereo unspecified), which AC50 [1] is on record?
The AC50 was 0.1 µM [rising, full curve, poor fit].

Which AC50 [2] does the source give for `O=C(Nc1nnc(-c2ccccc2)o1)c1cc(-c2cccs2)nc2ccccc12` here?
The AC50 was 0.794 µM [rising, full curve, poor fit].

What about the AC50 [1] of the same compound?
The AC50 was 6.31 µM [rising, full curve].

Which results are given for `Cc1cccc(C(=O)Nc2ccc(C(=O)/C=C/c3cccnc3)cc2)c1`?
AC50 [2]: 35.5 µM [falling, single point]; AC50 [1]: 35.5 µM [falling, single point]

With `CN1/C(=C\C(=O)Nc2ccc(Br)cc2)C(C)(C)c2ccccc21` as the compound, how does the AC50 [2] read?
Its AC50 is 15.8 µM [falling, partial curve].

What about the AC50 [1] of the same compound?
Its AC50 is 14.1 µM [falling, single point].

With `Cc1ccc(CNC(=O)C(C)n2c(=O)cc(-c3ccccc3)c3c(C)nn(C)c32)cc1` (stereo unspecified) as the compound, how does the AC50 [1] read?
Its AC50 is 12.6 µM [falling, single point].

Which AC50 [2] does the source give for `COc1ccc(-n2c(=O)c(-c3ccc(Cl)cc3)nc3cnc(N4CCNCC4)nc32)cc1` here?
The AC50 was 22.4 µM [falling, single point].

What about the AC50 [1] of the same compound?
The AC50 was 17.8 µM [falling, partial curve].

For `O=C(CN(C1CC1)S(=O)(=O)c1ccc(S(=O)(=O)NC2CCCCC2)cc1)Nc1ccccc1`, which AC50 [2] is on record?
Its AC50 is 15.8 µM [rising, single point].

What about the AC50 [1] of the same compound?
The AC50 was 31.6 µM [rising, single point].

With `CCOc1ccc(S(=O)(=O)N2CCN(c3ccccc3F)CC2)c2cccnc12` as the compound, how does the AC50 [2] read?
The AC50 was 35.5 µM [rising, single point].

And the AC50 [1]?
Its AC50 is 31.6 µM [rising, single point].

What does the source list for `CSc1nc2ccc(S(=O)(=O)N3CCc4ccccc43)cc2s1`?
AC50 [2]: 35.5 µM [rising, single point]; AC50 [1]: 15.8 µM [rising, single point]

With `Nc1nc(CSc2nc3ccccc3s2)nc(Nc2ccccc2)n1` as the compound, how does the AC50 [2] read?
The AC50 was 35.5 µM [falling, partial curve, poor fit].

For `O=[N+]([O-])c1cncc([N+](=O)[O-])c1Nc1ccccc1Cl`, which AC50 [1] is on record?
The AC50 was 35.5 µM [rising, single point].

With `Cc1ccc(N2CCN(c3cc(C)nc4nc(C)nn34)CC2)c(C)c1` as the compound, how does the AC50 [1] read?
The AC50 was 14.1 µM [rising, single point].

For `CC1(C)SC(=S)N(NC(=O)Nc2ccccc2)C1N(O)C(=O)Nc1cccc2ccccc12` (stereo unspecified), which AC50 [2] is on record?
Its AC50 is 35.5 µM [falling, partial curve].

And the AC50 [1]?
Its AC50 is 35.5 µM [falling, single point].

With `CC1(C(=O)Nc2ccc3ccccc3c2)CC1(Br)Br` (stereo unspecified) as the compound, how does the AC50 [2] read?
Its AC50 is 3.16 µM [falling, partial curve].

For `COc1ccccc1NC(=O)CSc1nc2sc(C)c(C)c2c(=O)n1Cc1ccco1`, which AC50 [2] is on record?
Its AC50 is 1.26 µM [rising, full curve, poor fit].

For `Clc1ccccc1-c1nnc2sc(C3COc4ccccc4O3)nn12` (stereo unspecified), which AC50 [1] is on record?
Its AC50 is 8.91 µM [rising, partial curve].

For `CCC(C)(C)n1nnnc1C(c1cccs1)N1CCN(c2nc3ccccc3s2)CC1` (stereo unspecified), which AC50 [2] is on record?
The AC50 was 11.2 µM [rising, partial curve, poor fit].

What about the AC50 [1] of the same compound?
The AC50 was 15.8 µM [rising, partial curve].

With `CN(C)c1ccc(/C=N/n2ncc3ccccc32)cc1` as the compound, how does the AC50 [2] read?
The AC50 was 25.1 µM [rising, single point].

And the AC50 [1]?
The AC50 was 35.5 µM [rising, single point].

For `CCCC(=O)NCCc1c2n(c3ccc(OC)cc13)CCCc1ccccc1-2`, which AC50 [2] is on record?
The AC50 was 12.6 µM [falling, partial curve].

And the AC50 [1]?
The AC50 was 12.6 µM [falling, partial curve].

For `COc1cc(/C=N/NC(=O)c2cc(-c3ccc4c(c3)OCO4)n[nH]2)ccc1O`, which AC50 [1] is on record?
Its AC50 is 11.2 µM [rising, single point].

For `Cc1ccc(C2NC(=O)c3c(sc4c3CCN(C)C4)N2)s1` (stereo unspecified), which AC50 [1] is on record?
The AC50 was 5.62 µM [rising, single point].

For `COc1ccc(CCNc2cc(C)nc3c(-c4ccccc4)cnn23)cc1OC`, which AC50 [1] is on record?
The AC50 was 8.91 µM [rising, partial curve, poor fit].

For `CCc1nc(SCC(=O)c2ccc3c(c2)OCCO3)c2ccccc2n1`, which AC50 [1] is on record?
Its AC50 is 15.8 µM [rising, single point].

For `O=c1c(-c2nc3ccccc3o2)c2oc3ccccc3n2c2ccccc12`, which AC50 [1] is on record?
Its AC50 is 22.4 µM [rising, single point].

Which AC50 [1] does the source give for `Cc1cc2c(cc1Cl)N(C(=O)Nc1ccnc3ccccc13)CC2` here?
The AC50 was 0.000891 µM [falling, full curve, poor fit].

With `O=C(O)Cn1nc(C(F)(F)F)c2c1CCCCC2` as the compound, how does the AC50 [2] read?
The AC50 was 22.4 µM [falling, single point].

What about the AC50 [1] of the same compound?
Its AC50 is 20 µM [falling, single point].

With `O=C1c2ccc3c4c(ccc(c24)C(=O)N1CCCCO)C(=O)N(CCCCO)C3=O` as the compound, how does the AC50 [2] read?
Its AC50 is 2.82 µM [falling, full curve].

And the AC50 [1]?
Its AC50 is 3.16 µM [falling, full curve].

For `CC[C@H]1OC(=O)[C@H](C)[C@@H](O[C@H]2C[C@@](C)(OC)[C@@H](O)[C@H](C)O2)[C@H](C)[C@@H](O[C@@H]2O[C@H](C)C[C@H](N(C)C)[C@H]2O)[C@](C)(O)C[C@@H](C)[C@@H]2N[C@@H](COCCOC)O[C@H]([C@H]2C)[C@]1(C)O`, which AC50 [2] is on record?
The AC50 was 0.708 µM [falling, partial curve, poor fit].

And the AC50 [1]?
Its AC50 is 35.5 µM [falling, partial curve, poor fit].

What does the source list for `O=C(Nc1nc(-c2ccc(F)cc2)cs1)c1ccc(N2C(=O)CCC2=O)cc1`?
AC50 [2]: 2.82 µM [rising, full curve, poor fit]; AC50 [1]: 6.31 µM [rising, full curve]

With `S=C(NCc1cccnc1)Nc1ccc(Oc2ccccc2)cc1` as the compound, how does the AC50 [2] read?
Its AC50 is 3.55 µM [falling, partial curve].

What about the AC50 [1] of the same compound?
The AC50 was 3.55 µM [falling, partial curve].

With `Cc1cc(Cl)ccc1NS(=O)(=O)c1ccc2c(c1)CC(C)N2C(=O)C1CCC1` (stereo unspecified) as the compound, how does the AC50 [1] read?
The AC50 was 12.6 µM [rising, single point].

For `C/C(=N\Nc1ccc([N+](=O)[O-])cc1)c1cc2ccccc2o1`, which AC50 [2] is on record?
The AC50 was 0.0891 µM [rising, full curve, poor fit].

And the AC50 [1]?
The AC50 was 0.0398 µM [rising, full curve, poor fit].

For `CC(C)c1onc(C(=O)N2CCCCCC2)c1[N+](=O)[O-]`, which AC50 [2] is on record?
The AC50 was 1 µM [rising, full curve, poor fit].

For `Cc1nnc2c3ccccc3c(-c3cccs3)nn12`, which AC50 [2] is on record?
The AC50 was 7.08 µM [falling, partial curve].

For `O=C(Nc1cc(Cl)cc(Cl)c1)c1ccc(Cn2c(=O)[nH]c3ccsc3c2=O)cc1`, which AC50 [1] is on record?
Its AC50 is 3.16 µM [rising, full curve, poor fit].

With `CCCOc1ccc(Cc2c(Cl)nc(SC)nc2N(C)C)cc1` as the compound, how does the AC50 [1] read?
Its AC50 is 11.2 µM [rising, partial curve].

Which AC50 [2] does the source give for `C[C@H](O)C(=O)Nc1c(I)c(C(=O)NC(CO)CO)c(I)c(C(=O)NC(CO)CO)c1I` here?
Its AC50 is 3.16 µM [falling, single point].

What about the AC50 [1] of the same compound?
The AC50 was 1.41 µM [falling, single point].

Which AC50 [1] does the source give for `COC(=O)c1[nH]c2ccccc2c1NC(=O)CN1CCCc2ccccc21` here?
Its AC50 is 17.8 µM [rising, single point].

Which AC50 [2] does the source give for `CCOc1cc(C2C(C(=O)OC)=C(C)NC3=C2C(=O)c2ccccc23)c(Br)cc1O` (stereo unspecified) here?
The AC50 was 35.5 µM [falling, single point].

What about the AC50 [1] of the same compound?
Its AC50 is 0.00794 µM [falling, full curve, poor fit].
